Reference: doi:10.1101/2024.12.05.627070
No constants are given. Whether binding was seen depends on the method and setting. Some binding calls cover weakened binding; strength is not graded here.

The chains behind the UniProt entries cited, without tags or fusion partners. Where a name states a change or a piece, a line headed by the entry shows the natural chain unless it says otherwise.
UniProt P25454: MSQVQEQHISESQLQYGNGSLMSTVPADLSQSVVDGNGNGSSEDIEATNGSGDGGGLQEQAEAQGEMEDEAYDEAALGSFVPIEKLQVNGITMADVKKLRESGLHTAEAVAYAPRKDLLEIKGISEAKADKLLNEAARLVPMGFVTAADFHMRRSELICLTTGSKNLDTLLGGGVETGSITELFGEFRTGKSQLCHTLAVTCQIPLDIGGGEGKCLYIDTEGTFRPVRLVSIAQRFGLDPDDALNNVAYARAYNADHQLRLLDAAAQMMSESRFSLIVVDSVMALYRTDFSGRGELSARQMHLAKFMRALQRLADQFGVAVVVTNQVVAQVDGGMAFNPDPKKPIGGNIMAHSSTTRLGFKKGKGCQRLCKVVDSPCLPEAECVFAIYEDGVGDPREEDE

Target: T1, Rad55-Rad57 complex (S. cerevisiae) (UniProt P38953+P25301)
T1 sequence 1: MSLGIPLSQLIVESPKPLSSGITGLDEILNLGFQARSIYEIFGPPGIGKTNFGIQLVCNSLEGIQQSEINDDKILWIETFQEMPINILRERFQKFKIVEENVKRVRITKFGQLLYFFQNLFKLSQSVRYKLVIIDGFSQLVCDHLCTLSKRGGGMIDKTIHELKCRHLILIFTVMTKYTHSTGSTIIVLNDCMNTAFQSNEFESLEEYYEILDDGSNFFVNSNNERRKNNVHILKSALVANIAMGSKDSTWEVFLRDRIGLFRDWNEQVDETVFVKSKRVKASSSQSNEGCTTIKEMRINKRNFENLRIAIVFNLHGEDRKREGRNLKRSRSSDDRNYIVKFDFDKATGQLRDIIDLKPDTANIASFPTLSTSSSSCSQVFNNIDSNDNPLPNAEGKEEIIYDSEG
T1 sequence 2: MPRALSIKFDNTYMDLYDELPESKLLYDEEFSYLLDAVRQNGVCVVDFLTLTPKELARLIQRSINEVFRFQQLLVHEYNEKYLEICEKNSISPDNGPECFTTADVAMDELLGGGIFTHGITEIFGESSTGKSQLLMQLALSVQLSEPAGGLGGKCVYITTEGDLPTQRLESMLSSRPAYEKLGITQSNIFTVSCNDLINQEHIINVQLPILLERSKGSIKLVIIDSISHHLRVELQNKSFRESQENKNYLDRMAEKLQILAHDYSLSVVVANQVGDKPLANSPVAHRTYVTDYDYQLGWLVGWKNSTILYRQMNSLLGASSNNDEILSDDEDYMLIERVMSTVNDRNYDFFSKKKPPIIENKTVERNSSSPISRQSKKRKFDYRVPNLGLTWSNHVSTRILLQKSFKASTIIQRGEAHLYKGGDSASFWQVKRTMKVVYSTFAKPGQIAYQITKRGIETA
Assay: two-hybrid

**Q.** “Rad51-E221K (two-hybrid fusion) (from UniProt P25454 1-400)” was tested. Which binding did it give?
**A.** binds

**Q.** For “Rad51-K214M (two-hybrid fusion, with E221K) (from UniProt P25454 1-400)”, which binding is on record?
**A.** binds
